Residue numbers refer to the chain shown, from its start. In names and notes the source's numbering stands. These are yes or no findings as the source states them, for the method shown. Some binding calls cover weakened binding; strength is not graded here. Tags and fused reporters may be left off the sequences shown. One block for each binder: values may come before it.
Experiments:
FLAG-TRAF2 (C34A) = molecular target: T1, FLAG-TRAF2 (C34A) (UniProt Q12933); assay: precipitation of FLAG-TRAF2 (C34A) from transfected HEK293T cells, western blot (FIG. 9B)
T1 sequence (looked up): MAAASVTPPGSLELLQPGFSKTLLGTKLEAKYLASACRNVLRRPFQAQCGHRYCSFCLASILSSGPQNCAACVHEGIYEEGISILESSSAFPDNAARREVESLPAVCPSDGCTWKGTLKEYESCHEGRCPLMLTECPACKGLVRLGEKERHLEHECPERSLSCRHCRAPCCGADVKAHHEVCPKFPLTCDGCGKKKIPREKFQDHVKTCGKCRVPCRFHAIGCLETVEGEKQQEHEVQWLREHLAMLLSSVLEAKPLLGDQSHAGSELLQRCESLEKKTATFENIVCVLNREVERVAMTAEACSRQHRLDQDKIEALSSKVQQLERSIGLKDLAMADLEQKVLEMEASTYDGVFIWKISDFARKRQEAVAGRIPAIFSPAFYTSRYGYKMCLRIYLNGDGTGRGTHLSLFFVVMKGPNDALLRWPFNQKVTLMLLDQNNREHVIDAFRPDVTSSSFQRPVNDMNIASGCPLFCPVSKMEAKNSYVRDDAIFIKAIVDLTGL

By UniProt entry, the sequences of proteins in these tests, tags left out.
UniProt Q99558: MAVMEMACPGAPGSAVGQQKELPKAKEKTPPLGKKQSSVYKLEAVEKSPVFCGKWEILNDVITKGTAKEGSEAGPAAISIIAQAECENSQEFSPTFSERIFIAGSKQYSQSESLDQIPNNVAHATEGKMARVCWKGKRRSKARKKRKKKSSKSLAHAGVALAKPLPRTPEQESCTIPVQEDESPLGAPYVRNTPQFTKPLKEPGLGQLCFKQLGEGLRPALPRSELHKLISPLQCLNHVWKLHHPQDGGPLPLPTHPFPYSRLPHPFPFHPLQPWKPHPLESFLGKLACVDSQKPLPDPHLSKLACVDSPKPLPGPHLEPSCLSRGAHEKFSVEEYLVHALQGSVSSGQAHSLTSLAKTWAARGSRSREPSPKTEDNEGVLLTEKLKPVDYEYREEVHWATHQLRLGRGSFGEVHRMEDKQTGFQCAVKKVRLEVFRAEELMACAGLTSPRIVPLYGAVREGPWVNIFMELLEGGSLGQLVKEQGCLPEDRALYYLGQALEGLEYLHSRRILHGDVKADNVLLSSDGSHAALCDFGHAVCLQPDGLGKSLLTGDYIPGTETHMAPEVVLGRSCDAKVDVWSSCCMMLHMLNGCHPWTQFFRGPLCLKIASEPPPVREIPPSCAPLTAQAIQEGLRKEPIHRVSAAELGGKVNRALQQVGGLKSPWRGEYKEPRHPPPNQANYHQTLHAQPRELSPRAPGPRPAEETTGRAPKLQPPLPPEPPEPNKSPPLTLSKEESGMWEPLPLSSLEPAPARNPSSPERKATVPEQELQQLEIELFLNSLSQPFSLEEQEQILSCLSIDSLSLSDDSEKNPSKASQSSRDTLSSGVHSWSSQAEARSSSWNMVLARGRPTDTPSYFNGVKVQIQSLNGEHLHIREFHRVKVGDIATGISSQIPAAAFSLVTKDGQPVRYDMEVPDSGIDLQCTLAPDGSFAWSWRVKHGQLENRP

myc-NIK = myc-NIK (UniProt Q99558); assay: immunoprecipitation of SIVA2 from co-transfected HEK-293T cells, western blot for NIK (FIG. 4C)

B2: HIS-SIVA2 (other, not shown: small tags and cut ends)
chain: MPKRSCPFADVAPLQLKVRVSQRELSRGVCAERYSQEVFDPSGVASIACSSCVRAVDGKAVCGQCERALCGQCVRTCWGCGSVACTLCGLVDCSDMYEKVLCTSCAMFET
notes: Expressed by transfection in HEK293T cells
binding (FLAG-TRAF2 (C34A)): binds

B4: FLAG-SIVA2 3SA (protein, not shown: small tags and cut ends)
chain: B2 chain with S5A, S50A, S51A
binding (myc-NIK): binds

B5: FLAG-SIVA2 6SA (protein, not shown: small tags and cut ends)
chain: B2 chain with S5A, S21A, S26A, S35A, S50A, S51A
binding (myc-NIK): binds

The next lines start with the values.

binding (FLAG-TRAF2 (C34A)): binds
B1: HIS-SIVA1 (protein, not shown: small tags and cut ends)
chain: MPKRSCPFADVAPLQLKVRVSQRELSRGVCAERYSQEVFEKTKRLLFLGAQAYLDHVWDEGCAVVHLPESPKPGPTGAPRAARGQMLIGPDGRLIRSLGQASEADPSGVASIACSSCVRAVDGKAVCGQCERALCGQCVRTCWGCGSVACTLCGLVDCSDMYEKVLCTSCAMFET

binding (FLAG-TRAF2 (C34A)): binds
B3: HIS-SIVA2 (C73A) (protein, not shown: small tags and cut ends)
chain: B2 chain with C73A

Source: patent US20110293593A1, “SIVA 2 STABILIZATION” (YEDA RESEARCH AND DEVELOPMENT CO., LTD., priority 2008, published 2011)
